Experimental data reported in the supplement of paper PMC8728848.
This is one part of the list.

How the values were obtained:
Experiment in all cases: glycan array binding signal (z-score within array); higher = stronger binding
Settings in all cases: glycan notation: IUPAC condensed, linker removed
[1] = target: Gal(a1-3)GalNAc
How it was run: (§1)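 From the Consortium for Functional Glycomics database, 3228 arrays were curated, keeping only those whose protein sequence was available. Binding is given as a within-array Z-score averaged across arrays sharing a protein sequence and across linkers. Negative Z-scores can be read as non-binding.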

[2] = target: Gal(a1-3)[Gal(a1-4)]Gal(b1-4)GlcNAc
How it was run: as §1

[3] = target: Gal(a1-4)Gal(b1-3)GlcNAc(b1-2)Man(a1-3)[Gal(a1-4)Gal(b1-3)GlcNAc(b1-2)Man(a1-6)]Man(b1-4)GlcNAc(b1-4)GlcNAc
How it was run: as §1

[4] = target: Gal(a1-4)Gal(b1-4)Glc
How it was run: as §1

[5] = target: Gal(a1-4)Gal(b1-4)GlcNAc
How it was run: as §1

[6] = target: Gal(a1-4)Gal(b1-4)GlcNAc(b1-2)Man(a1-3)[Gal(a1-4)Gal(b1-4)GlcNAc(b1-2)Man(a1-6)]Man(b1-4)GlcNAc(b1-4)GlcNAc
How it was run: as §1

[7] = target: Gal(a1-4)Gal(b1-4)GlcNAc(b1-3)Gal(b1-4)Glc
How it was run: as §1

[8] = target: Gal(a1-4)GlcNAc
How it was run: as §1

[9] = target: Gal(a1-6)Glc
How it was run: as §1

[10] = target: Gal(b1-2)Gal
How it was run: as §1

[11] = target: Gal(b1-3)Gal
How it was run: as §1

[12] = target: Gal(b1-3)Gal(b1-4)GlcNAc
How it was run: as §1

[13] = target: Gal(b1-3)GalNAc
How it was run: as §1

[14] = target: Gal(b1-3)GalNAc(a1-3)[Fuc(a1-2)]Gal(b1-4)Glc
How it was run: as §1

[15] = target: Gal(b1-3)GalNAc(a1-3)[Fuc(a1-2)]Gal(b1-4)GlcNAc
How it was run: as §1

[16] = target: Gal(b1-3)GalNAc(b1-3)Gal
How it was run: as §1

[17] = target: Gal(b1-3)GalNAc(b1-3)Gal(a1-4)Gal(b1-4)Glc
How it was run: as §1

[18] = target: Gal(b1-3)GalNAc(b1-4)Gal(b1-4)Glc
How it was run: as §1

[19] = target: Gal(b1-3)GalNAc(b1-4)[Neu5Ac(a2-3)]Gal(b1-4)Glc
How it was run: as §1

[20] = target: Gal(b1-3)GlcNAc
How it was run: as §1

[21] = target: Gal(b1-3)GlcNAc(a1-3)Gal(b1-4)GlcNAc
How it was run: as §1

[22] = target: Gal(b1-3)GlcNAc(a1-6)Gal(b1-4)GlcNAc
How it was run: as §1

[23] = target: Gal(b1-3)GlcNAc(b1-2)Man
How it was run: as §1

[24] = target: Gal(b1-3)GlcNAc(b1-2)Man(a1-3)[Gal(b1-3)GlcNAc(b1-2)Man(a1-6)]Man(b1-4)GlcNAc(b1-4)GlcNAc
How it was run: as §1

[25] = target: Gal(b1-3)GlcNAc(b1-2)Man(a1-3)[Gal(b1-3)GlcNAc(b1-2)Man(a1-6)]Man(b1-4)GlcNAc(b1-4)[Fuc(a1-6)]GlcNAc
How it was run: as §1

[26] = target: Gal(b1-3)GlcNAc(b1-2)Man(a1-3)[GlcNAc(b1-4)][Gal(b1-3)GlcNAc(b1-2)Man(a1-6)]Man(b1-4)GlcNAc(b1-4)GlcNAc
How it was run: as §1

[27] = target: Gal(b1-3)GlcNAc(b1-2)[Gal(b1-3)GlcNAc(b1-6)]Man(a1-6)[Gal(b1-3)GlcNAc(b1-2)Man(a1-3)]Man(b1-4)GlcNAc(b1-4)GlcNAc
How it was run: as §1

[28] = target: Gal(b1-3)GlcNAc(b1-3)Gal(b1-3)GlcNAc
How it was run: as §1

[29] = target: Gal(b1-3)GlcNAc(b1-3)Gal(b1-4)Glc
How it was run: as §1

[30] = target: Gal(b1-3)GlcNAc(b1-3)Gal(b1-4)GlcNAc
How it was run: as §1

[31] = target: Gal(b1-3)GlcNAc(b1-3)Gal(b1-4)GlcNAc(b1-2)Man(a1-3)[Gal(b1-3)GlcNAc(b1-3)Gal(b1-4)GlcNAc(b1-2)Man(a1-6)]Man(b1-4)GlcNAc(b1-4)GlcNAc
How it was run: as §1

[32] = target: Gal(b1-3)GlcNAc(b1-3)Gal(b1-4)GlcNAc(b1-2)[Gal(b1-3)GlcNAc(b1-3)Gal(b1-4)GlcNAc(b1-6)]Man(a1-6)[Gal(b1-3)GlcNAc(b1-3)Gal(b1-4)GlcNAc(b1-2)Man(a1-3)]Man(b1-4)GlcNAc(b1-4)[Fuc(a1-6)]GlcNAc
How it was run: as §1

[33] = target: Gal(b1-3)GlcNAc(b1-3)Gal(b1-4)GlcNAc(b1-3)Gal(b1-4)GlcNAc(b1-2)[Gal(b1-3)GlcNAc(b1-3)Gal(b1-4)GlcNAc(b1-3)Gal(b1-4)GlcNAc(b1-6)]Man(a1-6)[Gal(b1-3)GlcNAc(b1-3)Gal(b1-4)GlcNAc(b1-3)Gal(b1-4)GlcNAc(b1-2)Man(a1-3)]Man(b1-4)GlcNAc(b1-4)[Fuc(a1-6)]GlcNAc
How it was run: as §1

[34] = target: Gal(b1-3)GlcNAc(b1-3)Gal(b1-4)GlcNAc(b1-6)[Gal(b1-3)GlcNAc(b1-3)]Gal(b1-4)Glc
How it was run: as §1

[35] = target: Gal(b1-3)GlcNAc(b1-3)Gal(b1-4)[Fuc(a1-3)]GlcNAc
How it was run: as §1

[36] = target: Gal(b1-3)GlcNAc(b1-3)Gal(b1-4)[Fuc(a1-3)]GlcNAc(b1-6)[Gal(b1-3)GlcNAc(b1-3)]Gal(b1-4)Glc
How it was run: as §1

[37] = target: Gal(b1-3)GlcNAc(b1-3)GalNAc
How it was run: as §1

[38] = target: Gal(b1-3)GlcNAc(b1-6)Gal(b1-4)GlcNAc
How it was run: as §1

B1: AT5G17240(42) (Arabidopsis thaliana), Q6NQJ8 (protein)
chain: MDLEHQTMETFLRWAAEIGISDSIDSSRFRDSCLGHSLSVSDFPDAGGRGLGAARELKKGELVLKVPRKALMTTESIIAKDLKLSDAVNLHNSLSSTQILSVCLLYEMSKEKKSFWYPYLFHIPRDYDLLATFGNFEKQALQVEDAVWATEKATAKCQSEWKEAGSLMKELELKPKFRSFQAWLWASATISSRTLHVPWDSAGCLCPVGDLFNYDAPGDYSNTPQGPESANNVEEAGLVVETHSERLTDGGFEEDVNAYCLYARRNYQLGEQVLLCYGTYTNLELLEHYGFMLEENSNDKVFIPLETSLFSLASSWPKDSLYIHQDGKLSFALISTLRLWLIPQSQRDKSVMRLVYAGSQISVKNEILVMKWMSEKCGSVLRDLPTSVTEDTVLLHNIDKLQDPELRLEQKETEAFGSEVRAFLDANCLWDVTVLSGKPIEFSRKTSRMLSKWRWSVQWRLSYKRTLADCISYCNEKMNNLLGTQDRLRDL
glycan array binding signal (z-score) [1]: 1.94
glycan array binding signal (z-score) [2]: 8.82
glycan array binding signal (z-score) [3]: 0.298
glycan array binding signal (z-score) [4]: 4.63
glycan array binding signal (z-score) [5]: 0.387
glycan array binding signal (z-score) [6]: 0.355
glycan array binding signal (z-score) [7]: -0.492
glycan array binding signal (z-score) [8]: -0.595
glycan array binding signal (z-score) [9]: -0.436
glycan array binding signal (z-score) [10]: -0.694
glycan array binding signal (z-score) [11]: -0.268
glycan array binding signal (z-score) [12]: -0.576
glycan array binding signal (z-score) [13]: -0.195
glycan array binding signal (z-score) [14]: -0.14
glycan array binding signal (z-score) [15]: 0.279
glycan array binding signal (z-score) [16]: -0.267
glycan array binding signal (z-score) [17]: -0.12
glycan array binding signal (z-score) [18]: 1.23
glycan array binding signal (z-score) [19]: -0.077
glycan array binding signal (z-score) [20]: 0.069
glycan array binding signal (z-score) [21]: -0.028
glycan array binding signal (z-score) [22]: 0.002
glycan array binding signal (z-score) [23]: -0.359
glycan array binding signal (z-score) [24]: 0.236
glycan array binding signal (z-score) [25]: -0.545
glycan array binding signal (z-score) [26]: -0.202
glycan array binding signal (z-score) [27]: -0.437
glycan array binding signal (z-score) [28]: -0.484
glycan array binding signal (z-score) [29]: -0.662
glycan array binding signal (z-score) [30]: -0.795
glycan array binding signal (z-score) [31]: -0.165
glycan array binding signal (z-score) [32]: 0.298
glycan array binding signal (z-score) [33]: 0.942
glycan array binding signal (z-score) [34]: -0.126
glycan array binding signal (z-score) [35]: 0.016
glycan array binding signal (z-score) [36]: -0.474
glycan array binding signal (z-score) [37]: 0.17
glycan array binding signal (z-score) [38]: -0.579
